Source: PubChem BioAssay AID1259308 (NCATS, 2017)
In all, the deposit lists about 59,000 reagents; shown is an unselected part. About 1,510 of all reagents (2.6%) count as active. 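Calls use total luciferase alone and ignore viability, so some active siRNAs may act by altering cell number.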 Unmarked entries are inactive. The numbers tell different reagents against one gene apart.

Assay: 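Candidate targets for better recombinant protein yield in mammalian cells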 (primary screen)
System: human HEK293 embryonic kidney cells stably expressing firefly luciferase (HEK-CMV-Luc2-Hygro)
Reagents: single siRNA against human genes, 0.8 pmol siRNA per well
Timing: 72 h
Detection: 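Luciferase light (ONE-Glo) measured on one replicate plate set and viability (CellTiter-Glo) on the other, scaled to a negative control siRNA, with robust z-scores and luciferase per cell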
Scale: total luciferase, z-score and total luciferase, % of control: higher = more reporter protein produced; luciferase per cell, z-score: higher = more reporter output per viable cell; viable cells, % of control: higher = more viable cells
Hit rule: 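Active when the median/MAD z-score for overall luciferase is greater than 3; a gene was taken forward for validation with new siRNAs if at least two of its three siRNAs passed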
Calls: active = raised luciferase; inactive = no rise

gene	reagent no.	total luciferase, z-score	total luciferase, % of control	luciferase per cell, z-score	viable cells, % of control
MYH11 (myosin heavy chain 11)	1	-0.804	65.9	0.224	69.4
MYH11 (myosin heavy chain 11)	2	-2.03	41.5	-2.28	84.5
MYH11 (myosin heavy chain 11)	3	-0.12	79.5	-0.275	95.5
AMN (amnion associated transmembrane protein)	1	2.52	132	1.75	92.9
AMN (amnion associated transmembrane protein)	2	0.216	86.2	-0.311	105
AMN (amnion associated transmembrane protein)	3	6.62 (active)	214	4.77	68
FCRL2 (Fc receptor like 2)	1	-0.343	75.1	0.259	78.3
FCRL2 (Fc receptor like 2)	2	0.242	86.7	0.69	80.8
FCRL2 (Fc receptor like 2)	3	-0.742	67.1	-0.169	78.4
PKD1	1	1.48	111	1.6	81.6
PKD1	2	-0.885	64.3	-1.95	120
PKD1	3	0.437	90.6	0.617	86
UPK1B (uroplakin 1B)	1	1.22	106	0.71	98.4
UPK1B (uroplakin 1B)	2	2.37	129	3.06	64.5
UPK1B (uroplakin 1B)	3	1.87	119	1.48	90.2
CARF (calcium responsive transcription factor)	1	0.297	87.8	0.745	80.6
CARF (calcium responsive transcription factor)	2	0.463	91.1	0.923	79.8
CARF (calcium responsive transcription factor)	3	-0.351	74.9	0.584	71.8
CARF (calcium responsive transcription factor)	4	0.811	98	0.773	89.3
CARF (calcium responsive transcription factor)	5	1.95	121	1.57	89.2
CARF (calcium responsive transcription factor)	6	1.68	115	0.559	111
ATP2A2	1	0.0778	83.4	-0.995	121
ATP2A2	2	-0.0352	81.2	-0.713	109
ATP2A2	3	2.04	122	2.33	74.1
NKRF (NFKB repressing factor)	1	1.44	110	1.92	74.4
NKRF (NFKB repressing factor)	2	-0.884	64.3	-0.586	83.8
NKRF (NFKB repressing factor)	3	0.757	96.9	0.347	98.9
RBP4 (retinol binding protein 4)	1	-0.482	72.3	-0.573	93.9
RBP4 (retinol binding protein 4)	2	1.25	107	0.753	97.8
RBP4 (retinol binding protein 4)	3	1.18	105	1.94	70.7

Next part (7 carried over from the part before).
gene	reagent no.	total luciferase, z-score	total luciferase, % of control	luciferase per cell, z-score	viable cells, % of control
ATP2A2	3	2.04	122	2.33	74.1
NKRF (NFKB repressing factor)	1	1.44	110	1.92	74.4
NKRF (NFKB repressing factor)	2	-0.884	64.3	-0.586	83.8
NKRF (NFKB repressing factor)	3	0.757	96.9	0.347	98.9
RBP4 (retinol binding protein 4)	1	-0.482	72.3	-0.573	93.9
RBP4 (retinol binding protein 4)	2	1.25	107	0.753	97.8
RBP4 (retinol binding protein 4)	3	1.18	105	1.94	70.7
C1QTNF9B (C1q and TNF related 9B)	1	-1.05	61.1	-0.687	81.8
C1QTNF9B (C1q and TNF related 9B)	2	0.712	96	0.564	92.5
C1QTNF9B (C1q and TNF related 9B)	3	-1.67	48.7	-1.32	77
VAPB (VAMP associated protein B and C)	1	-0.842	65.1	-0.151	75.7
VAPB (VAMP associated protein B and C)	2	-0.301	75.9	2.27	46.7
VAPB (VAMP associated protein B and C)	3	0.841	98.6	0.684	92
TRMT1L (tRNA methyltransferase 1L)	1	1.27	107	1.55	79.7
TRMT1L (tRNA methyltransferase 1L)	2	-1.23	57.4	-0.808	79.3
TRMT1L (tRNA methyltransferase 1L)	3	0.149	84.9	0.447	84.3
GSDMA (gasdermin A)	1	0.222	86.3	-0.488	110
GSDMA (gasdermin A)	2	2.73	136	2.15	86.5
GSDMA (gasdermin A)	3	-1.89	44.3	-1.88	81.2
USF1 (upstream transcription factor 1)	1	-0.929	63.4	-0.897	89.7
USF1 (upstream transcription factor 1)	2	-1.04	61.2	-1.47	101
USF1 (upstream transcription factor 1)	3	0.931	100	1.53	74.9
SPATA17 (spermatogenesis associated 17)	1	0.183	85.5	0.194	90.8
SPATA17 (spermatogenesis associated 17)	2	0.11	84.1	1.07	71
SPATA17 (spermatogenesis associated 17)	3	1.44	110	1.87	75.4
TRIM3 (tripartite motif containing 3)	1	0.405	89.9	0.528	87.5
TRIM3 (tripartite motif containing 3)	2	-0.776	66.4	-0.742	90.3
TRIM3 (tripartite motif containing 3)	3	-1.66	48.9	-2.01	92.7
PAK1IP1 (PAK1 interacting protein 1)	1	-1.19	58.2	-1.54	97.6
PAK1IP1 (PAK1 interacting protein 1)	2	-1.62	49.6	-1.6	84.4
PAK1IP1 (PAK1 interacting protein 1)	3	-0.982	62.4	-1.19	95.2
CARMIL1 (capping protein regulator and myosin 1 linker 1)	1	-2.5	32.1	-1.7	56.1
CARMIL1 (capping protein regulator and myosin 1 linker 1)	2	-0.46	72.7	-0.445	91.4
CARMIL1 (capping protein regulator and myosin 1 linker 1)	3	0.397	89.8	-0.0581	102
